This note sets out measurements from publication PMC6366974, “The curcumin analog EF24 is a novel senolytic agent” (Aging (Albany NY), 2019).

The data set relates to WI-38 IR-induced senescent cells (IR-SCs). As to the kind of experiment: Cell viability assay (flow cytometry, PI). The format is cell-based, human. The following applies: WI-38 NCs vs IR-SCs, Table 1. The method, then:
Human WI-38 fibroblasts (WI-38, Cat. No. CCL-75), human IMR-90 fibroblasts (IMR-90, Cat. No. CCL-186), human umbilical vein endothelial cells (HUVEC, Cat. No. CRL-1730), human renal epithelial cells (HREC, Cat. No. PCS-400-012) and human pre-adipocytes (Cat. No. PCS-210-010) were newly purchased from the American Type Culture Collection (ATCC, Manassas, VA, USA). WI-38 and IMR-90 cells were cultured in complete Dulbecco’s modified Eagle medium (DMEM, Cat. No. 12430054, Thermo Fisher Scientific, Waltham, MA, USA) supplemented with 10% heat-inactivated fetal bovine serum (FBS, Cat. No. S11150H, Atlanta Biologicals, Flowery Branch, GA, USA), 100 U/mL penicillin and 100 µg/mL streptomycin (Pen Strep, Cat. No. 15140122, Thermo Fisher Scientific, Waltham, MA, USA) in a humidified incubator at 37°C and 5% CO2. HUVEC were cultured in EGM-2 BulletKit (Cat. No. CC-3162, Lonza, Basel, Switzerland) containing basal medium supplemented with growth factors, cytokines and other supplements according to the manufacturer’s protocol. HREC were cultured in renal epithelial cell basal medium (Cat. No. PCS-400-030, ATCC, Manassas, VA, USA) supplemented with renal epithelial cell growth kit (Cat. No. PCS400040, ATCC, Manassas, VA, USA). Human pre-adipocytes were cultured in fibroblast basal medium (Cat. No. PCS-201-030, ATCC, Manassas, VA, USA) supplemented with fibroblast growth kit-low serum (Cat. No. PCS201041, ATCC, Manassas, VA, USA). EF24 (Cat. No. E8409) and HO-3867 (Cat. No. S7501) were purchased from Sigma-Aldrich (St. Louis, MO, USA) and Selleckchem (Houston, TX, USA), respectively. DIMC (Cat. No. 10009986) and 2-HBA (Cat. No. 11879) were both purchased from Cayman Chemical (Ann Arbor, MI, USA).
Three different methods were used for the induction of SCs, including replicative exhaustion, ionizing radiation and ectopic Ras expression as previously described. […]
Number of viable cells were quantified using flow cytometry as previously described with slight modifications. […] Following dissociation with 0.25% Trypsin-EDTA (Cat. No. 25200056, Thermo Fisher Scientific, Waltham, MA, USA) at 37°C for 5 min, the cells were harvested in 100 µl pre-cooled phosphate buffered saline (PBS, Cat. No. 20012027, Thermo Fisher Scientific, Waltham, MA, USA) containing 2% FBS and 100 ng/mL propidium iodide (PI, P4170, Sigma-Aldrich, St. Louis, MO, USA) and analyzed using flow cytometry (LSR II, BD Biosciences, San Jose, CA, USA). Percentage of viable cells were determined by counting the number of PI negative cells (viable cells) and then calculated as a ratio of control cells treated with vehicle. […]
(In general: In flow cytometry, cells or beads pass a laser one at a time.)
For the molecule `COc1ccc(/C=C/C(=O)CC(=O)/C=C/c2ccc(OC)c(OC)c2)cc1OC` [DIMC, dimethoxycurcumin], the “EC50 value ratio NCs/SCs” value was determined as 1.56.
On to `O=C(C=Cc1ccccc1O)C=Cc1ccccc1O` [2-HBA, Bis(2-hydroxybenzylidene)acetone], for which the “EC50 value ratio NCs/SCs” value is given as 2.47.
Regarding `CC1(C)C=C(CN2C/C(=C\c3ccc(F)cc3)C(=O)/C(=C/c3ccc(F)cc3)C2)C(C)(C)N1O` [HO-3867], the “EC50 value ratio NCs/SCs” value was found to be 2.16.
Consider `O=C1/C(=C/c2ccccc2F)CNC/C1=C\c1ccccc1F` [EF24], for which the “EC50 value ratio NCs/SCs” value worked out at 2.9.
